# According to publication PMC12218921, “An adaptive peptide-binding site in ubiquitin receptor hRpn13 revealed by structural studies” (Nature Communications, 2025):
# No end group written: not given here.
# Tested on: hRpn13 Pru
# Assay: Crystal structure of hRpn13 Pru:ENT (atomic distances)
# Type: binding, human
substance,measurement,setting,value
GPGSMTT [ENT],Distance,Pru-A Gly 91 Cα to ENT Met 1 Cε,3.77 Å
same,Distance,Pru-A Gly 91 N to ENT Met 1 Cε,3.69 Å
same,Distance,Pru-A Lys 42 Cγ to ENT Ser d O,3.76 Å
same,Distance,Pru-A Lys 42 Cδ to ENT Thr 2 O,3.76 Å
same,Distance,Pru-A Lys 42 Cε to ENT Gly c O,3.17 Å
same,Distance,Pru-A Lys 42 Cε to ENT Ser d C,3.67 Å
same,Distance,Pru-A Lys 42 Cε to ENT Ser d O,3.22 Å
same,Distance,Pru-A Lys 42 Cε to ENT Thr 2 O,3.41 Å
same,Distance,Pru-A Lys 42 Nζ to ENT Gly c C,3.84 Å
same,Distance,Pru-A Lys 42 Nζ to ENT Gly c O,2.66 Å
same,Distance,Pru-A Lys 42 Nζ to ENT Pro b Cγ,3.76 Å
same,Distance,Pru-A Lys 42 Nζ to ENT Pro b Cδ,3.82 Å
same,Distance,Pru-A Lys 42 Nζ to ENT Thr 2 O,2.74 Å
same,Distance,Pru-A Pro 40 Cβ to ENT Met 1 Cγ,3.67 Å
same,Distance,Pru-A Pro 40 Cβ to ENT Ser d O,3.56 Å
same,Distance,Pru-A Pro 40 Cγ to ENT Ser d Cβ,3.73 Å
same,Distance,Pru-A Pro 40 Cγ to ENT Ser d Oγ,3.61 Å
same,Distance,Pru-A Pro 40 Cδ to ENT Ser d Cβ,3.9 Å
same,Distance,Pru-A Ser 90 C to ENT Met 1 Cε,3.62 Å
same,Distance,Pru-A Ser 90 O to ENT Met 1 Cβ,3.9 Å
same,Distance,Pru-A Ser 90 O to ENT Met 1 Cε,3.63 Å
same,Distance,Pru-A Trp 108 CH2 to ENT Met 1 O,3.78 Å
same,Distance,Pru-A Trp 108 Cβ to ENT Met 1 Sδ,3.59 Å
same,Distance,Pru-A Trp 108 Cγ to ENT Met 1 Cγ,3.88 Å
same,Distance,Pru-A Trp 108 Cγ to ENT Met 1 Sδ,3.73 Å
same,Distance,Pru-A Trp 108 Cδ2 to ENT Met 1 Cγ,3.65 Å
same,Distance,Pru-A Trp 108 Cε3 to ENT Met 1 Cβ,3.8 Å
same,Distance,Pru-A Trp 108 Cζ3 to ENT Met 1 O,3.44 Å
same,Distance,Pru-A Val 93 Cγ2 to ENT Met 1 Sδ,3.85 Å
same,distance N68 Oδ1 (Pru-C) to ^aG amide nitrogen,x-ray structure,4.2 Å
